Patent publication US20240076738A1, “Methods for Measuring Analytes in Cell Subpopulations” (Cleveland Cytometry Services Company, priority 2022, published 2024)
Where two headings read alike, the source gives them in different places. At least one structure is not confirmed: it was looked up by name or label, or the drawing left a doubt.

Amino acid sequences for entries named in this document (tags omitted). A change or cut given only in a name is not applied to a line headed by its entry.
UniProt P26358: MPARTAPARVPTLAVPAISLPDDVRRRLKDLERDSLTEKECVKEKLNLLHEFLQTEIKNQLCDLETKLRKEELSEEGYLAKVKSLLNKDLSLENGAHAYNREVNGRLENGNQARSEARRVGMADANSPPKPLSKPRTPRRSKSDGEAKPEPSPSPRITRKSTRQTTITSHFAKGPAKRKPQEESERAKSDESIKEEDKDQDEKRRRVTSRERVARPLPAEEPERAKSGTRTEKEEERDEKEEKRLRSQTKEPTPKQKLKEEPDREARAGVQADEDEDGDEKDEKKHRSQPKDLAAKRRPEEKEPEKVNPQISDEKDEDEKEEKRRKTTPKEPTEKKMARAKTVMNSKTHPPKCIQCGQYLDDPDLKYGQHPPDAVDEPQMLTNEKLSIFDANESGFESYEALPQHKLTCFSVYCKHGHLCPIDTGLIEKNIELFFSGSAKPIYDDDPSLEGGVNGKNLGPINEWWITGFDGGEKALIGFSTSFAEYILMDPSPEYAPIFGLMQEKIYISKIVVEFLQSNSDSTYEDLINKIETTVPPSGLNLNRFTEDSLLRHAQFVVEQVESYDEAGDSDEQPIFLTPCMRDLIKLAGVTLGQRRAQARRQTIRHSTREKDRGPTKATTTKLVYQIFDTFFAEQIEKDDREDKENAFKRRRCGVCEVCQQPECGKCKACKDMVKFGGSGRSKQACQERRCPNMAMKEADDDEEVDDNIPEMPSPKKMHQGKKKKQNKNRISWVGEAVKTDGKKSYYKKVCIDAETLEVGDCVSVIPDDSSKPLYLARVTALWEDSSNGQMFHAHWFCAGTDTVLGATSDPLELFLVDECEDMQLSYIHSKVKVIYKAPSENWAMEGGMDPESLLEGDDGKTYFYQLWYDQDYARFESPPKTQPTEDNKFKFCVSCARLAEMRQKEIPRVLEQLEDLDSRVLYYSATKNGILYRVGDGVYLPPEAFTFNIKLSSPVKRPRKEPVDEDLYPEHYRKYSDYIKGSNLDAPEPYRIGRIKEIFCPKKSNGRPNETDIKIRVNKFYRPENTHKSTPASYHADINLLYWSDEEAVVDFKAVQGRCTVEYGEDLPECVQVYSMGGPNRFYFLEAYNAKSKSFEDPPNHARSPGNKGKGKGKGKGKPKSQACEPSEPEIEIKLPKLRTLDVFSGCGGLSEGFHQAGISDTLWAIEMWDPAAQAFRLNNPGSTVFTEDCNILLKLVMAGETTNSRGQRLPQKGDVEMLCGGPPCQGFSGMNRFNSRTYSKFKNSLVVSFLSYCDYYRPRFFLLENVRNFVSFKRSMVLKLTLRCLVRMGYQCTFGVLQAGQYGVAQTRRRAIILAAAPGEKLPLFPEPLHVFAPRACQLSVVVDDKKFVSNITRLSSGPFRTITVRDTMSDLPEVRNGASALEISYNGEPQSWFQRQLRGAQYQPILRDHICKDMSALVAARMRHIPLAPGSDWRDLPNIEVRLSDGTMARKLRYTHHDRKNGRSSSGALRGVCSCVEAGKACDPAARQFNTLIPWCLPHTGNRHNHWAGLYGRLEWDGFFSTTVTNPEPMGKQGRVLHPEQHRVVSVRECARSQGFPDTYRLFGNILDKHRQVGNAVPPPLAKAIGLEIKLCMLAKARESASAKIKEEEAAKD

Target: T1, DNMT1 (Homo sapiens, UniProt P26358)
T1 construct: resulting in determination of DNMT1 levels in G1-phase cells and S phase cells; endogenous in cells
Format: in vivo

Nc1ncn([C@H]2C[C@H](O)[C@@H](CO)O2)c(=O)n1 [decitabine]
DNMT1 levels in Treated Late G1 cells, times less than in Baseline Late G1 cells (FIG. 6) (2N DNA content cells expressing Ki-67, multiple subjects): 5-8 times | levels of G1 DNMT1 (FIG. 4) (1 day after treatment, low non-cytotoxic dose, all subjects): reduced levels | DNMT1 levels in Treated G0+G1 cells versus Baseline G0+G1 cells (FIG. 6) (all cells with 2N DNA content, independent of Ki-67, the patent calls this conclusion incorrect): no effect | subjects in which DNMT1 depletion was detected and quantified (healthy donors, phase I clinical trial, T cells from blood): 100% | DNMT1 levels in G1-phase cells excluding G0-phase cells (FIG. 5) (one volunteer, day 1 versus day 0): decreased DNMT1 | DNMT1 levels in G1-phase cells excluding G0-phase cells (FIG. 5) (one volunteer, day 7): recovery of DNMT1 levels | DNMT1 levels determined for all cells (G0, G1, S and G2+M) (FIG. 5) (one volunteer, days 0, 1 and 7, Ki-67-positive and Ki-67-negative cells): no differences in DNMT1 levels
